Assay results taken from US10500286B2 (priority 2015, dated 2019).

Legend:
[1] = general procedure: Fmoc solid-phase peptide synthesis; Fmoc-Sieber-resin; PyBOP/DIPEA; settings: whole synthesis; for isolated yield: scale of the general procedure 0.69 mmol
[2] = general procedure: Fmoc solid-phase peptide synthesis; Sieber resin; PyBOP/DIPEA; settings: whole synthesis

| Substance | isolated mass [1] [mg] | isolated yield [1] [%] | isolated mass [2] [mg] |
| --- | --- | --- | --- |
| Cys-Asp-βDap-PEG4-Asp-Tyr-Met-Gly-Trp-Met-Asp-Phe-NH2 | 20 | 3 | – |
| Dap(Ac)-Asp-Cys-PEG2-Asp-Tyr-Met-Gly-Trp-Met-Asp-Phe-NH2 | – | 7 | 30 |
| Dap(Ac)-Asp-Cys-PEG3-Asp-Tyr-Met-Gly-Trp-Met-Asp-Phe-NH2 | 53 | 9.5 | – |
| Dap(Ac)-Asp-Cys-PEG12-Asp-Tyr-Met-Gly-Trp-Met-Asp-Phe-NH2 | 50 | 9 | – |
